Plain letter strings leave the end groups untold.
Test: peptide synthesis
Conditions: conjugation step, AUC at 254 nm
With DBCO-Ahx-W5 the “final HPLC purity” value was 92.6%. For Ks-PEG24-(N3-DBCO)-Ahx-W5, the “crude HPLC purity” value was 90.2%. With “{OH-PEG24}4-{propargyl}4K2K{Lys(N3)}-DBCO-Ahx-W5” the “final HPLC purity” value was 63.0%. For {propargyl}4K2K{Lys(N3)}-DBCO-Ahx-W5, the “final HPLC purity” value was 99.4%. With “{NH2—PEG24}4-{propargyl}4K2K{Lys(N3)}-DBCO-2-Amino-1,3-bis(carboxylethoxy)propane(2BXy)4” the “final HPLC purity” value was 67.7%. With DBCO-Ahx-(F′)20 the “final HPLC purity” value was 94.4%. With “DBCO-2-Amino-1,3-bis(carboxylethoxy)propane(Ahx-W5)2” the “final HPLC purity” value was greater than 95%. With “{propargyl}4K2K{Lys(N3)}-DBCO-Ahx-(F′)10” the “crude HPLC purity” value was 96.1%. For “{OH-PEG24}4-{propargyl}4K2K{Lys(N3)}-DBCO-2-Amino-1,3-bis(carboxylethoxy)propane(Doxorubucin)4”, the “final HPLC purity” value was 95.8%. For “{OH-PEG24}4-{propargyl}4K2K{Lys(N3)}-DBCO-Ahx-(F′)10”, the “final HPLC purity” value was 94.1%. For “{OH-PEG24}4-{propargyl}4K2K{Lys(N3)}-DBCO-2-Amino-1,3-bis(carboxylethoxy)propane(2BXy)4”, the “final HPLC purity” value was 99.3%. For “{propargyl}4K2K{Lys(N3)}-DBCO-2-Amino-1,3-bis(carboxylethoxy)propane(Doxorubicin)4”, the “final HPLC purity” value was 91.3%. For “DBCO-2-Amino-1,3-bis(carboxylethoxy)propane(Ahx-F′10)2”, the “final HPLC purity” value was 83.4%.

Same assay, conditions: conjugation step, AUC at 254 nm; run 1
For “{COOH-PEG24}4-{propargyl}4K2K{Lys(N3)}-DBCO-2-Amino-1,3-bis(carboxylethoxy)propane(2BXy)4”, the “final HPLC purity” value was 98.0%.

Same assay, conditions: conjugation step, AUC at 254 nm; run 2
In the case of “{COOH-PEG24}4-{propargyl}4K2K{Lys(N3)}-DBCO-2-Amino-1,3-bis(carboxylethoxy)propane(2BXy)4”, the “final HPLC purity” value is reported as 90.4%.

Same assay, conditions: whole synthesis
With FFFFFFFFFF the outcome was “N | —”. With FWFWFWFWFW the outcome was “N | —”. In the case of LLLLLLLLLL, the outcome is reported as “N | —”. With WWWWWWWWWW the outcome was “Y | Crude”.

Reference: patent publication US20210393523A1 (Avldea Technologies, Inc., priority 2018, published 2021)
